In paper PMC13248759 one finds binding data, which are given here for one substance.

Sequences of proteins named here, by UniProt entry; tags and fusion partners are left off.
UniProt Q9Y5X1: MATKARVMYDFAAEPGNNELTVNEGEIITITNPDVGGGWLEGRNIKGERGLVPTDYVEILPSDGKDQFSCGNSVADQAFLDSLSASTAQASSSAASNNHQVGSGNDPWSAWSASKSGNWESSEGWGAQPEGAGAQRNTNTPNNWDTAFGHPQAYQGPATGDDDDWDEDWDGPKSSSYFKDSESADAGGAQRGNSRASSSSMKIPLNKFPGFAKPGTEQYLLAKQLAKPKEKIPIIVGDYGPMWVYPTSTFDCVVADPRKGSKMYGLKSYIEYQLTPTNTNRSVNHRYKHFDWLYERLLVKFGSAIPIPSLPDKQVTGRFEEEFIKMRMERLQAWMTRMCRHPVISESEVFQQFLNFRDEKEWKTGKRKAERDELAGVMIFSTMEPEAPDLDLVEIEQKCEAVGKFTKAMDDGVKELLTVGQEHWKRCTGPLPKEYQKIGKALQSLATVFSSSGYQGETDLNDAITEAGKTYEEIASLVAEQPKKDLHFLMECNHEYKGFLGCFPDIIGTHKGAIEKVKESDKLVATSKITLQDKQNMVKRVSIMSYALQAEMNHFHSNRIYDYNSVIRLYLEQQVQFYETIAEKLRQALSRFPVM

Results are given in words; binding and its absence hold for the method and conditions named. Binding seen in cells or lysates may run through a third protein. These calls come from enrichment with a bait or labelling near it, and not all partners need be listed. Tags and fused reporters may be left off the sequences shown.

The test concerns the target T1, NUMB-1-FLAG (human) (UniProt P49757).
T1 sequence: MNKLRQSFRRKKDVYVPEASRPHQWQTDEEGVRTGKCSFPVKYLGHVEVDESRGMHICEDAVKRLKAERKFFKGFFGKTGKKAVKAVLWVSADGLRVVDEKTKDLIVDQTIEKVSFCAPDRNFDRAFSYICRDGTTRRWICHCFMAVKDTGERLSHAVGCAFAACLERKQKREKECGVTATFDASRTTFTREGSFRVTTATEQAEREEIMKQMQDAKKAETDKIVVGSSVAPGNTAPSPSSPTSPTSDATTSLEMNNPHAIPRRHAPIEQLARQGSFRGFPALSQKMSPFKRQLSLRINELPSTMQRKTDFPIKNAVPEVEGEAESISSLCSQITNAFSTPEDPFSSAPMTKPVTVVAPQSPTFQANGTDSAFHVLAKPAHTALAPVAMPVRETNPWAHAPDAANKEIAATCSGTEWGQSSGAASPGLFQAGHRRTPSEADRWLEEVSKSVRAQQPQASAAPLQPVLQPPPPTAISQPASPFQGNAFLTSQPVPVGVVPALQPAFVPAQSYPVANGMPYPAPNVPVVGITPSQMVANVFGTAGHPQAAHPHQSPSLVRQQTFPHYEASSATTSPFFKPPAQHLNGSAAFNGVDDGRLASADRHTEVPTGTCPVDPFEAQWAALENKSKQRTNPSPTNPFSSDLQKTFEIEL
The test is described as follows: affinity purification with mass spectrometry; lysates of HEK-293 cells transfected with FLAG-tagged NUMB isoforms 1-4, anti-FLAG immunoprecipitation, gel lanes digested and analysed by LC-MS/MS.

As to “sorting nexin 9 (SNX9), endogenous (from UniProt Q9Y5X1 1-595)”, the binding result is reported as “binds”.
